The target in the assay is SsoCas6-L170D/V202D (Sulfolobus solfataricus) (UniProt Q97Y96). Nature of the assay: SEC; calibrated gel filtration, HiLoad 26/600 Superdex 200, 20 mM Tris/HCl pH 7.5, 1 M NaCl; calibrated with Bio-Rad standards; both purified. For orientation: In gel filtration, larger molecules generally elute earlier.

Results are given in words; binding and its absence hold for the method and conditions named.

B1: SsoCas6-L170D/V202D (enzyme, UniProt Q97Y96 2-287)
chain: PLIFKIGYNVIPLQDVILPTPSSKVLKYLIQSGKLLPSLNNLITSRDKYKPIFISHLGLNQRRIFQTNGNLKTISRGSKLSSTIAFSTQVNVLPELDEGVFETIYGKFHITIESVEIVEVEKLKEEVEKHMNDNIRVRFISPTLLSSKVLLPPSLSERYKRVNAGYSTDPSVGLIVAYAYNVYCNLIGKKEVEVRAFKFGDISNALSRIIGYDLHPVTIVIGEDSKGNLRKARGVMGWIEFDIPDEKLKRRALRYLLASSYLGIGRSRGIGFGEIKLEFIKREENH
Regarding B1, the binding entry is reported as “no binding”.

For the origin of these results see publication PMC3652601, “Structure of a dimeric crenarchaeal Cas6 enzyme with an atypical active site for CRISPR RNA processing” (Biochemical Journal, 2013).
